The test system of the assay is HEK293A TEAD-LUC reporter. Briefly: TEAD-luciferase reporter activity (YAP activation), robust Z score vs plate; higher = stronger YAP/TEAD activation. Particulars: 24 h.

Counter-ions that a name gives are not always drawn. This is one part of the list. Single values are uncertain here, since repeats match poorly.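 Human kidney-derived cells stably carry a construct in which eight TEAD-binding elements drive luciferase, measured by luminescence in a drug-repurposing library screen. A hit is any compound whose signal exceeds the plate mean by more than five robust Z scores.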

As to `O=C(OC1CC2CCC(C1)[N+]21CCCC1)C(O)(c1ccccc1)c1ccccc1` (stereo unspecified) [trospium chloride extended release], the TEAD-luciferase reporter activity by setting is: (compound concentration: 200 nM) inactive: -0.423; (compound concentration: 2 uM) inactive: -1.94; (compound concentration: 10 uM) inactive: 2.01.
As to `C#C[C@]1(O)C=C[C@H]2[C@@H]3CCC4=CC(=O)CC[C@@H]4[C@H]3CC[C@@]21CC` [gestodene, transdermal, Bayer], the TEAD-luciferase reporter activity reads like this: (compound concentration: 200 nM) inactive: -1.83; (compound concentration: 10 uM) inactive: -0.79.
For the compound `C#C[C@]1(O)C=C[C@H]2[C@@H]3CCC4=CC(=O)CC[C@@H]4[C@H]3CC[C@@]21CC` [gestodene, transdermal], for the setting “compound concentration: 2 uM”, the TEAD-luciferase reporter activity was inactive: -0.769.
Consider `COc1cc(Br)c2oc(C3CCNCC3)cc2c1`, for which the TEAD-luciferase reporter activity (compound concentration: 200 nM) was inactive: -0.833, the TEAD-luciferase reporter activity (compound concentration: 2 uM) was inactive: -0.458 and the TEAD-luciferase reporter activity (compound concentration: 10 uM) is inactive: 1.04.
For `CC[C@H](Nc1nc(NCc2cnc(C)cc2C)c2ncn(C(C)C)c2n1)[C@@H](C)O`, the TEAD-luciferase reporter activity was inactive: 2.32 (compound concentration: 200 nM) and inactive: -0.386 (compound concentration: 10 uM).
With `CCOC(=O)N1CCC(=O)N(c2ccccc2)c2ccc(Cl)cc21` [analog of arfendazam], the TEAD-luciferase reporter activity by setting is: (compound concentration: 200 nM) inactive: -0.335; (compound concentration: 2 uM) inactive: -1; (compound concentration: 10 uM) inactive: -1.38.
As to `CC(Cc1ccccc1)N[C@@H](C)COc1ccccc1` (stereo partly specified), the TEAD-luciferase reporter activity is, setting by setting: (compound concentration: 200 nM) inactive: 1.45; (compound concentration: 2 uM) inactive: -0.943; (compound concentration: 10 uM) inactive: 2.3.
`COC(=O)C[C@](O)(CCC(C)(C)O)C(=O)O[C@@H]1C(OC)=C[C@]23CCCN2CCc2cc4c(cc2[C@H]13)OCO4` [Harringtonine]: the TEAD-luciferase reporter activity (compound concentration: 200 nM) is inactive: -0.433, the TEAD-luciferase reporter activity (compound concentration: 2 uM) was inactive: -2.27 and the TEAD-luciferase reporter activity (compound concentration: 10 uM) is inactive: -1.59.
On to `[O-][n+]1ccccc1S` [omadine], for which, where the note is “compound concentration: 2 uM”, the TEAD-luciferase reporter activity is inactive: 3.42.
As for `[O-][n+]1ccccc1S` [Zinc Pyrithione], the TEAD-luciferase reporter activity by setting is: (compound concentration: 200 nM) inactive: -0.996; (compound concentration: 2 uM) inactive: -2.38; (compound concentration: 10 uM) inactive: -3.37.
For `COc1cccc(C(=O)N2CCCC2C(=O)N2CCC(N3Cc4ccccc4C3=O)CC2)c1` (stereo unspecified), the TEAD-luciferase reporter activity reads like this: (compound concentration: 200 nM) inactive: -2.78; (compound concentration: 10 uM) inactive: 0.739.
Take `C=CCN1CC[C@]23CCCCC2[C@H]1Cc1ccc(O)cc13` (stereo partly specified): the TEAD-luciferase reporter activity (compound concentration: 200 nM) is inactive: 2.88, the TEAD-luciferase reporter activity (compound concentration: 2 uM) was inactive: 0.492 and the TEAD-luciferase reporter activity (compound concentration: 10 uM) is inactive: -1.14.
With `CC(C)(C)NCC(O)c1cc(Cl)c(N)c(C(F)(F)F)c1` (stereo unspecified) [mabuterol], the TEAD-luciferase reporter activity (compound concentration: 200 nM) is inactive: 0.807, the TEAD-luciferase reporter activity (compound concentration: 2 uM) is inactive: -0.624 and the TEAD-luciferase reporter activity (compound concentration: 10 uM) was inactive: 3.15.
In the same order, the values of `C[C@]12CCC(=O)C=C1CC[C@@H]1[C@@H]2[C@@H](O)C[C@]2(C)C(=O)CC[C@@H]12` are inactive: -0.29, inactive: 1.17 and inactive: 0.309.
`O=C1Nc2ccc(Cl)cc2C(c2ccccc2Cl)=NC1O` (stereo unspecified): the TEAD-luciferase reporter activity runs as follows: (compound concentration: 200 nM) inactive: -0.519; (compound concentration: 10 uM) inactive: 3.99.
Take `CN1C(=S)CN=C(c2ccccc2)c2cc(Cl)ccc21`: the TEAD-luciferase reporter activity (compound concentration: 200 nM) was inactive: -1.03, the TEAD-luciferase reporter activity (compound concentration: 2 uM) was inactive: 3.52 and the TEAD-luciferase reporter activity (compound concentration: 10 uM) is inactive: -0.016.
Taken in the same sequence, the figures for `CNCC(O)c1cc(OC)c(O)c(OC)c1` (stereo unspecified) were inactive: -1.08, inactive: 0.0942 and active: 6.01.
In the same order, the values of `CCN(C)C(=O)Oc1cccc([C@H](C)N(C)C)c1` [rivastigmine tartrate] are inactive: -2.78, inactive: -0.574 and inactive: 0.237.
In the same order, the values of `Cc1c2c(cn1C)NC(=O)CN=C2c1ccccc1` [premazepam] are inactive: 3.32, inactive: -0.54 and inactive: 0.293.
Take `CN(C(=N)Nc1cccc2ccccc12)c1cccc(I)c1`: the TEAD-luciferase reporter activity is inactive: -2.58 (compound concentration: 200 nM), inactive: -0.793 (compound concentration: 2 uM) and inactive: -0.726 (compound concentration: 10 uM).
Taken in the same sequence, the figures for `COc1ccc2c3c1OC1C(=O)C=CC4(O)C(C2)N(C)CCC314` (stereo unspecified) [14-Hydroxycodei] were inactive: 4.72, inactive: -0.483 and inactive: 0.613.
Consider `NCC(CC(=O)O)c1ccccc1` (stereo unspecified) [Phenibut], for which the TEAD-luciferase reporter activity was inactive: -1.11 (compound concentration: 200 nM), inactive: -1.92 (compound concentration: 2 uM) and inactive: 1.51 (compound concentration: 10 uM).
Taken in the same sequence, the figures for `CN1CCN(c2cccc3[nH]c(=O)oc23)CC1` [Pardoprunox (hydrochloride)] were inactive: -2, inactive: 1.03 and inactive: 3.95.
As to `C[C@@]1(CO)[C@H](O)CC[C@@]2(C)[C@H]1CC[C@H]1C[C@@H]3C[C@@]12CC[C@]3(O)CO`, the TEAD-luciferase reporter activity is inactive: -1.74 (compound concentration: 200 nM), inactive: -0.831 (compound concentration: 2 uM) and inactive: -0.684 (compound concentration: 10 uM).
As for `CCOC(=O)c1ncc2[nH]c3ccc(OCc4ccccc4)cc3c2c1COC`, the TEAD-luciferase reporter activity runs as follows: (compound concentration: 200 nM) inactive: -0.995; (compound concentration: 2 uM) inactive: -0.567; (compound concentration: 10 uM) inactive: 0.217.
Consider `O=C(C[N+]12CCC(CC1)[C@@H](OC(=O)N(Cc1cc(F)c(F)c(F)c1)c1cccc(F)c1)C2)c1cccs1`, for which the TEAD-luciferase reporter activity reads like this: (compound concentration: 200 nM) inactive: -0.714; (compound concentration: 2 uM) inactive: -0.541; (compound concentration: 10 uM) inactive: -0.153.
As for `NCP(=O)(O)O`, the TEAD-luciferase reporter activity reads like this: (compound concentration: 200 nM) inactive: 0.462; (compound concentration: 10 uM) inactive: 0.00464.
`OC[C@H]1O[C@@H](n2cnc3cc(Cl)c(Cl)cc32)[C@H](O)[C@@H]1O`: the TEAD-luciferase reporter activity by setting is: (compound concentration: 200 nM) inactive: -1.09; (compound concentration: 2 uM) inactive: -1.7; (compound concentration: 10 uM) inactive: 0.366.
`CN1C[C@H](Cn2cncn2)CC2c3cccc4[nH]cc(c34)C[C@H]21` (stereo partly specified): the TEAD-luciferase reporter activity is, setting by setting: (compound concentration: 200 nM) inactive: -1.47; (compound concentration: 2 uM) inactive: -0.228; (compound concentration: 10 uM) inactive: 2.83.
Taken in the same sequence, the figures for `CCc1cccc2c(-c3nsc(CN4CCCC4)n3)cn(CC3CCCCC3)c12` were inactive: -0.305, inactive: 1.09 and inactive: -0.718.
With `CC(C)N1CC2CCC(C1)N2C(=O)N1CCCC1`, the TEAD-luciferase reporter activity is, setting by setting: (compound concentration: 200 nM) inactive: -1.89; (compound concentration: 10 uM) inactive: 1.51.
Consider `COC(=O)[C@@H]1C[C@H](OC(C)=O)C(=O)[C@H]2[C@@]1(C)CC[C@H]1C(=O)O[C@H](c3ccoc3)C[C@]21C` [Salvinorin A], for which the TEAD-luciferase reporter activity is inactive: -1.41 (compound concentration: 200 nM), inactive: 2.52 (compound concentration: 2 uM) and active: 7.06 (compound concentration: 10 uM).
As for `CN(C)CCc1c[nH]c2ccc(C3=CCN(C)CC3)cc12`, the TEAD-luciferase reporter activity runs as follows: (compound concentration: 200 nM) inactive: -0.372; (compound concentration: 2 uM) inactive: -2.11; (compound concentration: 10 uM) inactive: 0.703.
In the same order, the values of `CCOP(=O)(OCC)C(C)NC(=O)N(CCCl)N=O` (stereo unspecified) [fotemustine] are inactive: -0.771, inactive: -2.12 and inactive: -1.41.
On to `O=[N+]([O-])OCc1cccc(Cl)c1`, for which the TEAD-luciferase reporter activity by setting is: (compound concentration: 200 nM) inactive: 1.52; (compound concentration: 2 uM) inactive: -1.99; (compound concentration: 10 uM) inactive: -0.36.
On to `CCOC(=O)CC(NC(=O)C(Cc1ccc(N(CCCl)CCCl)cc1)NC(C)=O)C(=O)OCC` (stereo unspecified), for which the TEAD-luciferase reporter activity (compound concentration: 200 nM) was inactive: -1.73, the TEAD-luciferase reporter activity (compound concentration: 2 uM) was inactive: -0.744 and the TEAD-luciferase reporter activity (compound concentration: 10 uM) was inactive: 1.67.
Regarding `NC(=O)OCC(Cl)(Cl)Cl`, the TEAD-luciferase reporter activity reads like this: (compound concentration: 200 nM) inactive: 0.723; (compound concentration: 2 uM) inactive: -0.243; (compound concentration: 10 uM) inactive: -0.234.

Source of the values: the supplement of paper PMC10735217.
